Measured values as given in PubChem BioAssay AID1671190 (National Center for Advancing Translational Sciences (NCATS), 2021).
Several values for one entry are separate records, joined by “and”; a condition that tells them apart may be missing. Equal values may be shown once. The campaign covered roughly 580,000 compounds. About 6,100 (1.1%) were called active. This list was built around the results that the source calls inconclusive (neither active nor inactive); the mix of calls is not that of the screen. Calls follow the shape of the dose curve; as a rule, active = well fitted inhibition curve with a large enough effect; inconclusive = small, poorly fitted or top-dose-only effect, or another doubt; inactive = no such curve, though single readings can be large or run the other way. Potencies of inconclusive entries are doubtful fits and often do not repeat.

Chains of the proteins cited; added tags and fusions are not shown.
UniProt P18054, whole entry, looked up: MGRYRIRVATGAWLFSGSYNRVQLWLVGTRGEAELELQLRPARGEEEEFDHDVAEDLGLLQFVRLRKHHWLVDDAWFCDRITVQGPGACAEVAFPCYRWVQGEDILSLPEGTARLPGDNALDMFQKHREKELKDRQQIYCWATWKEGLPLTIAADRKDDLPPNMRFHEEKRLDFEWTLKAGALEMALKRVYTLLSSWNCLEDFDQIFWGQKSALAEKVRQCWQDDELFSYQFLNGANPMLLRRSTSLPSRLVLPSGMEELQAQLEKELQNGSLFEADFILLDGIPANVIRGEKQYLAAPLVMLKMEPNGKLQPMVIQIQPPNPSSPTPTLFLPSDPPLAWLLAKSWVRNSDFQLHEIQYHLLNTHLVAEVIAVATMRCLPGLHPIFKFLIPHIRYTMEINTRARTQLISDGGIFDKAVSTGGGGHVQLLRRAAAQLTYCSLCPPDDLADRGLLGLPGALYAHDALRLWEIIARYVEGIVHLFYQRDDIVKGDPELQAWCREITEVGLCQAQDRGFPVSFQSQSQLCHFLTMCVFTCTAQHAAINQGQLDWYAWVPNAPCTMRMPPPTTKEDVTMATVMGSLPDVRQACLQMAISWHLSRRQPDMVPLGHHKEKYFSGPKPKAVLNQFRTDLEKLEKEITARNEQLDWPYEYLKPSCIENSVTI

What follows are molecules tested against Polyunsaturated fatty acid lipoxygenase ALOX12 (Homo sapiens) (UniProt P18054) (assay: Primary qHTS assay for inhibitors of human arachidonate 12S-lipoxygenase (ALOX12): Round 2). Settings: purified 12hLO, xylenol orange hydroperoxide absorbance; activity change, negative = inhibition: at 108 µM (top of the series) unless noted.
How it was run: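 Purified human 12hLO at 150 nM in 25 mM Hepes, 0.01% Triton X-100, pH 7.0, preincubated 15 min at room temperature with compound. Reaction started with 40 uM arachidonic acid, 30 min at room temperature. Hydroperoxide measured by Fe-xylenol orange, 573/405 nm absorbance ratio.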
% is scaled to controls: 0 for no effect and ±100 for the full control effect; potency is read from the fitted curve at half-maximal effect.

Row | Structure (SMILES) | Potency | activity change, negative = inhibition
1 | CCc1ccc(/C=C/C(=O)c2cc3ccccc3oc2=O)cc1 | inconclusive: 39.8 µM [inhibitor, partial curve, poor fit] | –
2 | CCc1ccc(S(=O)(=O)NC(=S)NC2CCCCC2)cc1 | inconclusive: 20 µM [inhibitor, partial curve, poor fit] | –
3 | Cc1ccc(C(=O)NC(=S)NNC(=O)c2cccc([N+](=O)[O-])c2)cc1 | inconclusive: 1.12 µM [inhibitor, full curve, poor fit] | –
4 | COc1ccc(NC(=O)CSc2cn(CCNC(=O)c3ccc(OC)cc3)c3ccccc23)cc1 | inactive | –
5 | O=C(NCCCn1ccnc1)c1ccc(NS(=O)(=O)c2cccc([N+](=O)[O-])c2)cc1 | inactive | –
6 | CC(C)Oc1ccc(/C(O)=C2\C(=O)C(=O)N(c3nccs3)C2c2ccc(C(C)C)cc2)cc1 (stereo not drawn) | inconclusive: 3.16 µM [inhibitor, full curve, poor fit] | –
7 | S=C(NCCc1ccccc1)Nc1ccc(Cl)cc1 | inconclusive: 39.8 µM [inhibitor, partial curve] | –
8 | CSc1ccccc1N1CCN(CCCCCC(=O)NC2CCCc3ccccc32)CC1 (stereo not drawn) | inconclusive: 44.7 µM [inhibitor, partial curve, poor fit] | –
9 | CC(C)NC(=O)NC1CC2(CCN(Cc3ccc(O)cc3)CC2)c2ccccc21 (stereo not drawn) | – | inactive: 5.03% [at 6.33 µM]
10 | Cc1ccc(S(=O)(=O)CC(=O)N2CCN(c3cccc(C(F)(F)F)c3)CC2)cc1 | inactive | –
11 | O=C(CCC1N=C2c3ccccc3N=C(SCc3cccc(Cl)c3)N2C1=O)NCCc1ccccc1 (stereo not drawn) | inactive | –
12 | CCOC(=O)CSc1cccc2cccnc12 | inconclusive: 44.7 µM [inhibitor, single point] | –
13 | c1ccc(Oc2nc(-c3ccccn3)nc3ccccc23)cc1 | inconclusive: 35.5 µM [inhibitor, single point] | –
14 | COc1ccc(S(=O)(=O)Oc2ccc3oc(=O)cc(-c4cc5cccc(OC)c5o4)c3c2)cc1 | inactive | –
15 | Cc1ccccc1NC(=S)NC1CCCC1 | inconclusive: 31.6 µM [inhibitor, partial curve, poor fit] | –
16 | O=C1NC[C@H](CCCCN2C[C@H](Cc3ccccc3)N(CCC3CCCCC3)C(=O)C2=O)N(CC2CCCCC2)C1=O | inconclusive: 112 µM [inhibitor, single point] | –
17 | O=C1CC(c2ccccc2)n2nc(NC(=O)c3ccccc3)nc2N1 (stereo not drawn) | inconclusive: 100 µM [inhibitor, single point] | –
18 | Cc1nn(-c2ccc(C(C)(C)C)cc2)c(C)c1[C@@H]1C=C[C@@H](NC(=O)CCC(=O)O)C1 | inconclusive: 31.6 µM [inhibitor, full curve] | –
19 | CCC(C)[C@H](N)c1nnc(SCc2ccc(Cl)c(Cl)c2)o1 (stereo partly drawn) | inconclusive: 15.8 µM [inhibitor, full curve, poor fit] | –
20 | Cc1ccc(S(=O)(=O)N(C)C)cc1NC(=O)C1CCCCC1 | inconclusive: 89.1 µM [inhibitor, single point] | –
21 | CN(C)CCNC(=O)/C(=C/c1ccc(-c2ccc(Cl)cc2Cl)o1)NC(=O)c1ccccc1 | active: 44.7 µM | –
22 | CC(=O)NC(c1ccc(C)cc1)c1cc([N+](=O)[O-])c2cccnc2c1O (stereo not drawn) | active: 44.7 µM | –

Row | Structure (SMILES) | Potency | activity change, negative = inhibition
23 | CC(C)(C)CN[C@@H](Cn1ccc(=O)[nH]c1=O)C(=O)O | inactive | –
24 | c1ccc(-c2[nH]ncc2-c2nc3ccccc3[nH]2)cc1 | inconclusive: 7.08 µM [inhibitor, full curve, poor fit] | –
25 | NC(=S)Nc1ccc(S(N)(=O)=O)cc1 | inconclusive: 56.2 µM [inhibitor, partial curve, poor fit] | –
26 | COCC1CN(C(=O)c2cc(Cl)ccc2OC)CC12CCNCC2 (stereo not drawn) | inactive | –
27 | Cc1ccc(S(=O)(=O)Nc2cc3c4c(c2)CCC(=O)N4CCC3)cc1 | inconclusive: 70.8 µM [inhibitor, partial curve, poor fit] | –
28 | Cc1ccc(NC(=O)c2cc(-c3ccncc3)nc3ccccc23)c(O)c1 | inconclusive: 100 µM [inhibitor, partial curve, poor fit] | –
29 | C=CCn1c(SCc2csc(C)n2)nc2sc3c(c2c1=O)CCCCC3 | inactive | –
30 | O=C(CCS(=O)(=O)c1ccccc1)Nc1nc2ccc(F)cc2s1 | inconclusive: 10 µM [inhibitor, partial curve, poor fit] | –
31 | CN(Cc1ccc(-c2ccccc2)cc1)C(=O)Nc1ccccc1 | inconclusive: 56.2 µM [inhibitor, full curve] | –
32 | O=C(Cc1ccc(N(Cc2cccc(F)c2)C(=O)c2ccco2)cc1)Nc1ccccc1 | inconclusive: 17.8 µM [inhibitor, full curve] | –
33 | COc1ccc(-c2nc3ccc(C)cn3c2Cc2ccccc2C(F)(F)F)cc1OC | inconclusive: 89.1 µM [inhibitor, single point] | –
34 | Cc1ccc(/C=C2/C(=O)ON=C2c2ccccc2)o1 | active: 10 µM | –
35 | CNc1cc(C)nc2c(-c3ccc(OC)c(OC)c3)c(C)nn12 | inactive | –
36 | COC1CCN(C(=O)c2ccnc(-c3nnc4ccc(Nc5ccccc5)nn34)c2)CC1 | inactive | –
37 | Cc1ccc(/C=N/N2CCN(Cc3cccc4ccccc34)CC2)o1 | inconclusive: 35.5 µM [inhibitor, partial curve] | –
38 | CC(C)(C)C(=O)c1sc(Nc2ccccc2)nc1N | – | inconclusive: -44.9% [inhibitor]
39 | CCOc1ccc(-n2c(=S)sc3c(=O)[nH]c(SCC(=O)N4CCC(C)CC4)nc32)cc1 | active: 44.7 µM | –
40 | O=C(CN1CCCCCC1)NCCc1c[nH]c2ccccc12 | inconclusive: 50.1 µM [inhibitor, partial curve, poor fit] | –
41 | Cc1ccc(NC(=O)c2ccc(Nc3ccccc3F)nc2)cc1 | inactive | –
42 | C=CCOC(=O)C(C#N)c1nc2ccccc2nc1N1CCN(Cc2ccccc2)CC1 (stereo not drawn) | inactive and inconclusive: 79.4 µM [inhibitor, partial curve, poor fit] | –
43 | O=C(O)c1ccc2cc(C(=O)O)[nH]c2c1 | inconclusive: 8.91 µM [inhibitor, full curve, poor fit] | –

Record cards, from the list above. Values in the order: Potency | activity change, negative = inhibition
`Cc1ccc(S(=O)(=O)Nc2cc3c4c(c2)CCC(=O)N4CCC3)cc1` in the list: inconclusive: 70.8 µM [inhibitor, partial curve, poor fit] | –
`COC1CCN(C(=O)c2ccnc(-c3nnc4ccc(Nc5ccccc5)nn34)c2)CC1` in the list: inactive | –
`C=CCOC(=O)C(C#N)c1nc2ccccc2nc1N1CCN(Cc2ccccc2)CC1` (stereo not drawn) in the list: inactive and inconclusive: 79.4 µM [inhibitor, partial curve, poor fit] | –
